# Binding screen against folded nucleic acids

From ROBIN, a set of small-molecule microarray screens (doi:10.1002/anie.202211358).

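Each compound is printed as two spots on a slide made to bind it covalently, so it has no test concentration; the read-out is fluorescence of the bound, labelled oligonucleotide. The data file lists only calls. An earlier report of the laboratory on the PreQ1, TPP and SAM-II riboswitches (doi:10.1038/s41467-019-09493-3) used 1 µM RNA for 2 h and required a mean Z-score above 3 (spot signal-to-noise against the whole library), a score well above that on a control array, and duplicate spots agreeing (coefficient of variation under 100); it then also set aside compounds that hit other targets, which this list keeps. The cut-offs behind this list may differ. These are primary screening calls, not affinities; a compound without a hit may have attached poorly or may still bind in solution.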
A compound is marked active if it was called a hit and inactive if it was screened but was not.
The compounds are a random part of those screened.
A target missing from an entry has no call listed here.

Oligonucleotides screened, 5′ to 3′:
SAM-II: SAM-II riboswitch RNA pseudoknot, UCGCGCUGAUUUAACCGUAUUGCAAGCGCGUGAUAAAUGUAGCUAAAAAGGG. About 200 hits among about 21,000 compounds.
TPP: TPP riboswitch RNA three-way junction, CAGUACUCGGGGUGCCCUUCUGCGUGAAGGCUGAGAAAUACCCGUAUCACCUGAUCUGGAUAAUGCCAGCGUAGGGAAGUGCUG. About 160 hits among about 24,000 compounds.
PreQ1: PreQ1 riboswitch RNA pseudoknot, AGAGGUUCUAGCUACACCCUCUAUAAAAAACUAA. From B. subtilis. About 170 hits among about 24,000 compounds.

With N[C@@H](Cc1ccccc1)c1nnc(SCc2ccccc2)o1 the screen gave SAM-II: inactive; TPP: inactive; PreQ1: inactive.
With CCCCCCn1c(CN2CCN(CCO)CC2)nc2c1c(=O)n(C)c(=O)n2C the screen gave SAM-II: inactive; TPP: inactive; PreQ1: inactive.
With Cc1ncc(C(=O)N2CCC(N3CCC(O)CC3)CC2)c(C)n1 the screen gave SAM-II: inactive; TPP: inactive; PreQ1: inactive.
With O=C(c1nc(-c2ccccc2)n(-c2ccc(Cl)cc2)n1)N(CCO)CCO the screen gave TPP: inactive; PreQ1: inactive.
With CCNc1nc2nc(O)cc(O)c2s1 the screen gave SAM-II: inactive; TPP: inactive; PreQ1: inactive.
With Nc1ncnc2[nH]c(SCCOc3ccccc3F)nc12 the screen gave TPP: inactive; PreQ1: inactive.
With N#Cc1c(-c2ccco2)cc(-c2ccc3c(c2)OCO3)nc1N the screen gave SAM-II: inactive; TPP: inactive; PreQ1: inactive.
With Nc1ncnc2c1ncn2[C@@H]1O[C@H](CO)C[C@@H]1O the screen gave SAM-II: inactive; TPP: inactive; PreQ1: inactive.
With Cc1ccc2[nH]c(C)c(CCN)c2c1 the screen gave SAM-II: inactive; TPP: inactive; PreQ1: inactive.
With OC1CCCN(Cc2cccc(Br)c2)C1 (stereo not given) the screen gave SAM-II: inactive; TPP: inactive; PreQ1: inactive.
With Cc1[nH]c2c(C(=O)N3CC[C@H](O)C[C@@H]3C(=O)O)cccc2c1C the screen gave SAM-II: inactive; TPP: inactive; PreQ1: inactive.
With Cc1ccc2nc(C)cc(Nc3cccc(Cl)c3)c2c1 the screen gave SAM-II: inactive; TPP: inactive; PreQ1: inactive.
With Cc1ccc(-n2nc3ccc(N)cc3n2)cc1Cl the screen gave SAM-II: inactive; TPP: inactive; PreQ1: inactive.
With O=S(=O)(N1CCCCC1)N(CCO)Cc1ccccc1 the screen gave SAM-II: inactive; TPP: inactive; PreQ1: inactive.
With O=C(C1CCC(CNc2c(N3CCCC3)c(=O)c2=O)CC1)N1CCN(c2ccccc2)CC1 (stereo not given) the screen gave TPP: inactive; PreQ1: inactive.
With CN(CC(O)Cn1c2ccccc2c2ccccc21)S(=O)(=O)c1ccc(Br)cc1 (stereo not given) the screen gave SAM-II: inactive; TPP: inactive; PreQ1: inactive.
With O=C1C=CC(=c2ccc(=C3C=C(Nc4cccc(CNC5CC5)c4)NN3)cc2)C(O)=C1 the screen gave SAM-II: active; TPP: inactive; PreQ1: inactive.
With Nc1c(C(=O)C2CC2)oc2ccc(Br)cc12 the screen gave SAM-II: inactive; TPP: inactive; PreQ1: inactive.
With COC(=O)c1ccc(OCC(O)Cn2cnc3cc(C)c(C)cc32)cc1 (stereo not given) the screen gave SAM-II: inactive; TPP: inactive; PreQ1: inactive.
With COC(=O)CNc1cc(C)nc2nc(-c3ccc(C)cc3)nn12 the screen gave TPP: inactive; PreQ1: inactive.
With Clc1ccc(-c2nc3c(c(NCCn4cccn4)n2)CNC3)cc1 the screen gave SAM-II: inactive; TPP: inactive; PreQ1: inactive.
With CCN(CC)CCCNc1nc(-c2nnc(-c3ccc(C)cc3)o2)nc2ccccc12 the screen gave SAM-II: inactive; TPP: active; PreQ1: inactive.
With Cc1nc2ccccc2c(=O)n1CCO the screen gave SAM-II: inactive; TPP: inactive; PreQ1: inactive.
With CC(=NNC(=O)C(O)c1ccccc1)c1ccc(NC(=O)C(F)(F)F)cc1 (stereo not given) the screen gave SAM-II: inactive; TPP: inactive; PreQ1: inactive.
With CNC(=O)c1cccnc1N1CC[C@H](N2CCN(C)CC2)[C@H](CCCO)C1 the screen gave SAM-II: inactive; TPP: inactive; PreQ1: inactive.
With Cc1ccc(/N=N/c2ccc(C)cc2NC(=O)Nc2ccccc2F)cc1 the screen gave SAM-II: inactive; TPP: inactive; PreQ1: inactive.
With CC(C)[C@H](NC(=O)CCc1cc2n(n1)CCNC2)C(N)=O the screen gave SAM-II: inactive; TPP: inactive; PreQ1: inactive.
With c1ccc(-c2nc(Cn3ccnc3-c3cc4n(n3)CCCNC4)no2)cc1 the screen gave SAM-II: inactive; TPP: inactive; PreQ1: inactive.
With N#CC1=C(N)Oc2[nH]nc(-c3ccc4ccccc4c3)c2C1c1ccccc1 (stereo not given) the screen gave SAM-II: inactive; TPP: inactive; PreQ1: inactive.
With CC(C)n1cc(C(=O)N2CCC(C(O)c3cccs3)CC2)cn1 (stereo not given) the screen gave SAM-II: inactive; TPP: inactive; PreQ1: inactive.
With COc1cccc(NC(CNS(=O)(=O)c2ccc(C)cc2)c2ccccc2)c1 (stereo not given) the screen gave TPP: inactive; PreQ1: inactive.
With Cc1ccc(C)c(NC2c3ccccc3C(=O)N2c2cccnc2)c1 (stereo not given) the screen gave SAM-II: inactive; TPP: inactive; PreQ1: inactive.
With CCOC(=O)c1nc(Nc2ccc(C(C)=O)cc2)c2ccccc2n1 the screen gave SAM-II: inactive; TPP: inactive; PreQ1: inactive.
With N#CC1=C(N)Oc2[nH]nc(-c3ccc(F)cc3)c2C1c1ccc2c(c1)OCO2 (stereo not given) the screen gave SAM-II: inactive; TPP: inactive; PreQ1: inactive.

Repeated from the top, 4 entries:

{"structure": "N[C@@H](Cc1ccccc1)c1nnc(SCc2ccccc2)o1", "SAM-II": "inactive", "TPP": "inactive", "PreQ1": "inactive"}
{"structure": "CCCCCCn1c(CN2CCN(CCO)CC2)nc2c1c(=O)n(C)c(=O)n2C", "SAM-II": "inactive", "TPP": "inactive", "PreQ1": "inactive"}
{"structure": "Cc1ncc(C(=O)N2CCC(N3CCC(O)CC3)CC2)c(C)n1", "SAM-II": "inactive", "TPP": "inactive", "PreQ1": "inactive"}
{"structure": "O=C(c1nc(-c2ccccc2)n(-c2ccc(Cl)cc2)n1)N(CCO)CCO", "TPP": "inactive", "PreQ1": "inactive"}